Data on 2 molecules can be found in article PMC6053349.

By UniProt entry, the sequences of proteins in these tests, tags left out.
UniProt O00429: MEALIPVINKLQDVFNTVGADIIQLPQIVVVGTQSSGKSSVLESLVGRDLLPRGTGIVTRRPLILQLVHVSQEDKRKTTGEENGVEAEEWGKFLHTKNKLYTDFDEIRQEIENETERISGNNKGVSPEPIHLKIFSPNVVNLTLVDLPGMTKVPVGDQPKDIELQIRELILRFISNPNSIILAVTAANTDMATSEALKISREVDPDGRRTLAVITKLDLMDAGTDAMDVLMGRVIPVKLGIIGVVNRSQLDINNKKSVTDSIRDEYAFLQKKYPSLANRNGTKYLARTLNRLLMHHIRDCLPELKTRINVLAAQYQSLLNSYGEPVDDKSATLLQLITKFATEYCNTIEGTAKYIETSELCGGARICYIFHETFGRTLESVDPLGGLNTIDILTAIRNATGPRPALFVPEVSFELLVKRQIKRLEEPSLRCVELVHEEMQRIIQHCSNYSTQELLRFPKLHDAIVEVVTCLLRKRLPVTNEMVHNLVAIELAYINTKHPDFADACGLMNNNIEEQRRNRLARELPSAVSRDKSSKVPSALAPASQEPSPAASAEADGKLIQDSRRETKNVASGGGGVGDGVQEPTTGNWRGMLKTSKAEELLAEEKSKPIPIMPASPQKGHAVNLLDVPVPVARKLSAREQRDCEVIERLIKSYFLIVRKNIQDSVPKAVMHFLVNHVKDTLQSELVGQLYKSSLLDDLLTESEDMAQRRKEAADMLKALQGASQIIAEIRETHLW

Results are given in words; binding and its absence hold for the method and conditions named. Binding seen in cells or lysates may run through a third protein. Some results given as binding are weak or reduced against the parent protein; the word gives no strength. For some of these results: Tags and fused reporters may be left off the sequences shown.

The target in assay [1] is T1, endogenous Trak1 (human (endogenous in HeLa)) (UniProt Q9UPV9).
T1 sequence: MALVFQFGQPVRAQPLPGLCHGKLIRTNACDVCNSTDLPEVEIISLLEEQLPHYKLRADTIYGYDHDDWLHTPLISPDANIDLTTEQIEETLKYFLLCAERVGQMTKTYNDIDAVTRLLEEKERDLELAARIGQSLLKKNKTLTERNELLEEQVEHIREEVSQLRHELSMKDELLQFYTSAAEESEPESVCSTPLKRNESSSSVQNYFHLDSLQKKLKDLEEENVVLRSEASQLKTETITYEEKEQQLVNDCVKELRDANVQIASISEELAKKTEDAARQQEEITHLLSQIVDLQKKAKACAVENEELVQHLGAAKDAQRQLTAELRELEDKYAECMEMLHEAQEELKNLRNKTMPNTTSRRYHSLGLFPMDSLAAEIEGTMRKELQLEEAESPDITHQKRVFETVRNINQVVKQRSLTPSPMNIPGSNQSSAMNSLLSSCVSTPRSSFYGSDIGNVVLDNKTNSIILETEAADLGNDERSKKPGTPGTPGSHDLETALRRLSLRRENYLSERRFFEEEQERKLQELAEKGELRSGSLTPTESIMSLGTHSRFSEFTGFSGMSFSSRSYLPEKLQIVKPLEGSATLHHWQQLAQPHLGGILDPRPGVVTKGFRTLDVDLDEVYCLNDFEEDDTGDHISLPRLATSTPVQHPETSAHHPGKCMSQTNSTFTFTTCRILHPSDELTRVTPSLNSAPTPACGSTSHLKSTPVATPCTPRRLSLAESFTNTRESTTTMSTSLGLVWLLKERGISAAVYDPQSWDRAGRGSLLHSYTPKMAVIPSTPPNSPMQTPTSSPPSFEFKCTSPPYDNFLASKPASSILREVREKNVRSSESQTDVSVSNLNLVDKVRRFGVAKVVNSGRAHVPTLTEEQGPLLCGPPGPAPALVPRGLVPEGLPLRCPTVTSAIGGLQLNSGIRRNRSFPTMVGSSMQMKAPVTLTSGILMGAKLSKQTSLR
Nature of the assay: co-IP; HeLa cell lysates (50 mmol/L Tris-HCl pH 7.6, 100 mmol/L NaCl, 1% IGEPAL CA-630, 0.1% Triton-X-100) immunoprecipitated with anti-Trak1 antibody or rabbit IgG control, 4 h at 4°C, protein G-Sepharose; immunoblot for Trak1, Mfn1, Mfn2, Drp1. (Immunoblotting shows a protein as a band on a membrane.)

Assay [2] deals with GFP-tagged human Trak1 hyrt (residues 1-824) (human) (UniProt Q9UPV9). The experiment in a line: co-IP; lysates of shTrak1 HeLa cells co-transfected with GFP-tagged and HA-tagged Trak1 constructs; immunoprecipitation with anti-HA; immunoblot with anti-HA and anti-GFP.
In a further assay the target is T2, Myc-tagged Mfn2 (UniProt Q80U63).
T2 sequence: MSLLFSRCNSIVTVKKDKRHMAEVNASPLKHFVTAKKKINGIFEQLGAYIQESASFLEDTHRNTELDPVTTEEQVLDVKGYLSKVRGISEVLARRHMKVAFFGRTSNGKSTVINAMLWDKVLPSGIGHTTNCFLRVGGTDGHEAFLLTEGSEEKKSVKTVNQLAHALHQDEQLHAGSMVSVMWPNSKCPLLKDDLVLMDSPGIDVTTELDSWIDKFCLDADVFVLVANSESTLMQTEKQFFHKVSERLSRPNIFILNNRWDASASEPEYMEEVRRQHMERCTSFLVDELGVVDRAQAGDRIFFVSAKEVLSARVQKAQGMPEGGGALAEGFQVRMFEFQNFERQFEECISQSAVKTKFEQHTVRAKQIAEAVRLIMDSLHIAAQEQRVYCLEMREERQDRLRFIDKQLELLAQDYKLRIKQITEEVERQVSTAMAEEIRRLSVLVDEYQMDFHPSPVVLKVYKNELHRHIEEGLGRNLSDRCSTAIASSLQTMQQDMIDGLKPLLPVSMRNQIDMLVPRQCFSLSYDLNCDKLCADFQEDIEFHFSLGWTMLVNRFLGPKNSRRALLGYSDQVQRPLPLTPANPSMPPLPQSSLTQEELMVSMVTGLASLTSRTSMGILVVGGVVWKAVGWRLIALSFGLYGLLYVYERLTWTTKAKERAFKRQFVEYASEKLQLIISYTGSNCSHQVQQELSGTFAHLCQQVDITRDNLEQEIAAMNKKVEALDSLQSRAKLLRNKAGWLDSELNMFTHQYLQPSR
The experiment in a line: co-IP; lysates of shTrak1 HeLa cells co-transfected with GFP-tagged and Myc-tagged constructs; immunoprecipitation with anti-Myc (9E10), 4 h at 4°C, protein G-Sepharose; immunoblot with anti-Myc and anti-GFP.

Another assay concerns the target T3, Myc-tagged Mfn1 (UniProt Q811U4).
T3 sequence: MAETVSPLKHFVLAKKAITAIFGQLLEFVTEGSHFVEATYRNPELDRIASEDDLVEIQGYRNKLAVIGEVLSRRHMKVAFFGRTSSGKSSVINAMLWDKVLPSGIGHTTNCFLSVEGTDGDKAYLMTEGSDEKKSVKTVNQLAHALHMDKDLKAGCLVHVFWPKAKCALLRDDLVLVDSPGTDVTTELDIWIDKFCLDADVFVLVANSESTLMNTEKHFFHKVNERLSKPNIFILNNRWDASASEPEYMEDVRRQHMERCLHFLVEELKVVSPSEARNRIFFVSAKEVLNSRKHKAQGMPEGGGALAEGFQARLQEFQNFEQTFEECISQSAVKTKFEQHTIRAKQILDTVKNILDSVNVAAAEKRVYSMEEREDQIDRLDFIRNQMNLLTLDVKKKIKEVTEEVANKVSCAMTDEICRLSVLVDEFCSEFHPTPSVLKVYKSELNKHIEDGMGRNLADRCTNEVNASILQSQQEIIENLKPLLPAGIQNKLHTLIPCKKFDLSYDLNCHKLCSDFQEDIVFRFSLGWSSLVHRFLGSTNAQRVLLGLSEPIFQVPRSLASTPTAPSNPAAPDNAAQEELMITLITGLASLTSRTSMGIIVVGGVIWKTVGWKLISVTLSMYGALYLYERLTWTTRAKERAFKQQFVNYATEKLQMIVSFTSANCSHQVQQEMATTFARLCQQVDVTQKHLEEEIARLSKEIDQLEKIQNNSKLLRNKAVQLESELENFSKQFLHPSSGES
Described as above.

As to “endogenous dynamin-related protein 1 (Drp1) (from UniProt O00429 1-736)”, in assay [1], the binding result is reported as “no binding”.

B1: GFP-tagged human Trak1 hyrt (residues 1-824) (domain or fragment, UniProt Q9UPV9 1-824)
chain: MALVFQFGQPVRAQPLPGLCHGKLIRTNACDVCNSTDLPEVEIISLLEEQLPHYKLRADTIYGYDHDDWLHTPLISPDANIDLTTEQIEETLKYFLLCAERVGQMTKTYNDIDAVTRLLEEKERDLELAARIGQSLLKKNKTLTERNELLEEQVEHIREEVSQLRHELSMKDELLQFYTSAAEESEPESVCSTPLKRNESSSSVQNYFHLDSLQKKLKDLEEENVVLRSEASQLKTETITYEEKEQQLVNDCVKELRDANVQIASISEELAKKTEDAARQQEEITHLLSQIVDLQKKAKACAVENEELVQHLGAAKDAQRQLTAELRELEDKYAECMEMLHEAQEELKNLRNKTMPNTTSRRYHSLGLFPMDSLAAEIEGTMRKELQLEEAESPDITHQKRVFETVRNINQVVKQRSLTPSPMNIPGSNQSSAMNSLLSSCVSTPRSSFYGSDIGNVVLDNKTNSIILETEAADLGNDERSKKPGTPGTPGSHDLETALRRLSLRRENYLSERRFFEEEQERKLQELAEKGELRSGSLTPTESIMSLGTHSRFSEFTGFSGMSFSSRSYLPEKLQIVKPLEGSATLHHWQQLAQPHLGGILDPRPGVVTKGFRTLDVDLDEVYCLNDFEEDDTGDHISLPRLATSTPVQHPETSAHHPGKCMSQTNSTFTFTTCRILHPSDELTRVTPSLNSAPTPACGSTSHLKSTPVATPCTPRRLSLAESFTNTRESTTTMSTSLGLVWLLKERGISAAVYDPQSWDRAGRGSLLHSYTPKMAVIPSTPPNSPMQTPTSSPPSFEFKCTSPPYDNFLASKPASSILREVRE
For B1, the binding entry (in assay [2]; with Myc-tagged Mfn2; with Myc-tagged Mfn1) was “binds” in each case.
